Data taken from publication PMC12785511, “Integrative Profiling for BBB Permeability Using Capillary Electrochromatography, Experimental Physicochemical Parameters, and Ensemble Machine Learning” (International Journal of Molecular Sciences, 2025).

Tests used:
[1] = open-tubular capillary electrochromatography (CEC), permeability k′ parameter; assay type: in vitro ADME; conditions: pH 7.4 HEPES buffer 40 mM, migration times in coated and uncoated capillary, mean ± SD of three independent experiments
[2] = physchem; conditions: pH 7.4

COc1cc2c(cc1OC)C(=O)C(CC1CCN(Cc3ccccc3)CC1)C2 (centres unmarked) [donepezil]
k′ ± SD (CEC) [1]: −0.01233 ± 0.00010
logD [2]: 2.19
